Reference: PubChem BioAssay AID504791 (Drosophila RNAi Screening Center, 2011)
In all, the deposit lists about 23,000 reagents; shown is an unselected part of those that have a named target and a result. Over the whole deposit, 199 (0.86%) were called active. 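Plate-scaled ratios behind the calls are not deposited; printed light signals are raw; many rows marked increased or decreased are still called inactive.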 Names joined by + are all predicted targets of the reagent. Not given: the direction of the score.

Test: 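Genes of the fly required for silencing by miRNA, siRNA or endo-siRNA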 (primary screen)
Cell system: Drosophila S2-derived reporter cells
Knock-down reagent: long dsRNA against Drosophila genes, about 150-250 ng dsRNA per well (siRNA assay); about 80-120 ng (miRNA assay)
Duration: about 5 days (siRNA assay); about 4 days (miRNA assay)
Conditions: copper sulfate induction of reporters: 25 µM (siRNA assay); 200 mM stated (miRNA assay), 1-2 days before reading
Measurement: 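Dual luciferase assay: Renilla to firefly signal ratio in each well, scaled to the mean ratio of its plate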
Units: stable assay Renilla, run 1 in luminescence; stable assay firefly, run 1 in luminescence
Active means: 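a well was a first-pass pick when its plate-scaled ratio rose above 1.5 (siRNA assay) or 1.6 (miRNA assay), or dropped below 0.6; a gene counted only if two separate dsRNAs agreed on retest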

Against Or1a (GeneID 30978) [DRSC18689], the entry reads stable assay Renilla, run 1 = 7118; stable assay firefly, run 1 = 4.86e5; inactive.
Knock-down of CG11655 (GeneID 32472) [DRSC19413] resulted in: stable assay Renilla, run 1 = 5475; stable assay firefly, run 1 = 4.98e5; inactive.
With knock-down of tup (GeneID 35147) [DRSC03627], the screen gave stable assay Renilla, run 1 = 6462; stable assay firefly, run 1 = 1.54e6; inactive.
With knock-down of CG8097 (GeneID 32495) [DRSC20079], the record shows stable assay Renilla, run 1 = 5783; stable assay firefly, run 1 = 4.35e5; inactive.
After knock-down of Adgf-A (GeneID 39976) [DRSC10566], the screen gave stable assay Renilla, run 1 = 7730; stable assay firefly, run 1 = 2.85e5; inactive.
Abi (GeneID 41718) [DRSC14099] gave stable assay Renilla, run 1 = 7712; stable assay firefly, run 1 = 4.07e5; inactive.
With knock-down of CG18764 (GeneID 59239) [DRSC15391], the screen gave stable assay Renilla, run 1 = 7128; stable assay firefly, run 1 = 3.74e5; inactive.
VAChT + ChAT [DRSC13312] gave stable assay Renilla, run 1 = 4319; stable assay firefly, run 1 = 4.01e5; inactive.
With knock-down of upSET (GeneID 39551) [DRSC11051], the screen gave stable assay Renilla, run 1 = 8440; stable assay firefly, run 1 = 2.79e5; inactive.
With knock-down of upSET (GeneID 39551) [DRSC23289], the record shows stable assay Renilla, run 1 = 6178; stable assay firefly, run 1 = 4.39e5; inactive.
Knock-down of Prosbeta7 (GeneID 40639) [DRSC12186] came out at: stable siRNA reporter change reporter ratio raised past the hit cutoff; miRNA reporter change reporter ratio raised past the hit cutoff; stable assay Renilla, run 1 = 9558; stable assay firefly, run 1 = 2.60e5; active.
Against CG9003 (GeneID 36244) [DRSC07317] the deposit lists stable assay Renilla, run 1 = 5626; stable assay firefly, run 1 = 3.03e5; inactive.
Depletion of CG16762 (GeneID 38310) [DRSC08493] came out at: stable assay Renilla, run 1 = 6888; stable assay firefly, run 1 = 4.99e5; inactive.
After knock-down of CG9776 (GeneID 40546) [DRSC12127] the results were stable assay Renilla, run 1 = 18754; stable assay firefly, run 1 = 5.37e5; inactive.
Knock-down of CG14820 (GeneID 38754) [DRSC10191] came out at: stable assay Renilla, run 1 = 5560; stable assay firefly, run 1 = 3.35e5; inactive.
With knock-down of rst (GeneID 31290) [DRSC17243], the screen gave stable assay Renilla, run 1 = 7327; stable assay firefly, run 1 = 3.08e5; inactive.
After knock-down of rst (GeneID 31290) [DRSC18828] the results were stable assay Renilla, run 1 = 6120; stable assay firefly, run 1 = 3.24e5; inactive.
After knock-down of Try29F (GeneID 34226) [DRSC03466], the screen gave miRNA reporter change reporter ratio raised past the hit cutoff; stable assay Renilla, run 1 = 9772; stable assay firefly, run 1 = 5.48e5; inactive.
With knock-down of Dhc1 (GeneID 41171) [DRSC16503], the screen gave stable assay Renilla, run 1 = 7051; stable assay firefly, run 1 = 4.45e5; inactive.
Silencing of CG40498 (GeneID 3354890) [DRSC07786] resulted in: stable assay Renilla, run 1 = 6591; stable assay firefly, run 1 = 4.72e5; inactive.
Art9 (GeneID 41698) [DRSC16584] showed stable assay Renilla, run 1 = 7271; stable assay firefly, run 1 = 4.50e5; inactive.
After knock-down of shakB (GeneID 33062) [DRSC20492], the record shows stable assay Renilla, run 1 = 7727; stable assay firefly, run 1 = 6.70e5; inactive.
After knock-down of shakB (GeneID 33062) [DRSC20585], the screen gave stable assay Renilla, run 1 = 5404; stable assay firefly, run 1 = 3.96e5; inactive.
With knock-down of shakB (GeneID 33062) [DRSC22817] the results were stable siRNA reporter change reporter ratio raised past the hit cutoff; stable assay Renilla, run 1 = 1540; stable assay firefly, run 1 = 60126; inactive.
For Cpr97Ea (GeneID 43258) [DRSC15974] the deposit lists stable assay Renilla, run 1 = 7022; stable assay firefly, run 1 = 3.73e5; inactive.
CG4080 (GeneID 39079) [DRSC10398] showed stable assay Renilla, run 1 = 7254; stable assay firefly, run 1 = 3.82e5; inactive.
After knock-down of Flacc (GeneID 32886) [DRSC20040], the screen gave stable assay Renilla, run 1 = 8658; stable assay firefly, run 1 = 3.53e5; inactive.
For CG12795 (GeneID 33561) [DRSC00354] the deposit lists stable assay Renilla, run 1 = 7584; stable assay firefly, run 1 = 4.19e5; inactive.

Part of the list above, reformatted.
{"gene":"Dhc1 (GeneID 41171)","DRSC id":"DRSC16503","stable assay Renilla, run 1":7051,"stable assay firefly, run 1":4.45e5,"Outcome":"inactive"}
{"gene":"CG40498 (GeneID 3354890)","DRSC id":"DRSC07786","stable assay Renilla, run 1":6591,"stable assay firefly, run 1":4.72e5,"Outcome":"inactive"}
{"gene":"Art9 (GeneID 41698)","DRSC id":"DRSC16584","stable assay Renilla, run 1":7271,"stable assay firefly, run 1":4.50e5,"Outcome":"inactive"}
{"gene":"shakB (GeneID 33062)","DRSC id":"DRSC20492","stable assay Renilla, run 1":7727,"stable assay firefly, run 1":6.70e5,"Outcome":"inactive"}
{"gene":"shakB (GeneID 33062)","DRSC id":"DRSC20585","stable assay Renilla, run 1":5404,"stable assay firefly, run 1":3.96e5,"Outcome":"inactive"}
